Results taken from the supplement of paper PMC4635364.
Structures can show the parent of a compound that is named as a salt. Some of the results follow. Single values are uncertain here, since repeats match poorly.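 Human fetal ventral-midbrain neural progenitor line ReNCell VM, differentiated without mitogens. Images stained for doublecortin (early neurons) or tyrosine hydroxylase (dopaminergic neurons) were scored by blinded raters against untreated wells (0 = no change). Repeats and both raters were averaged, and compounds averaging 2 or higher were picked as hits for retesting.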

Legend:
ReNCell VM [1] = experiment: neuronal differentiation score (DCX+ cell fraction vs untreated, manual image score) (score (-3 to 3)); higher = more neuronal differentiation; details: 2 uM, 2 weeks
ReNCell VM [2] = experiment: dopaminergic neuron differentiation score (TH+ cell fraction vs untreated, manual image score) (score (0 to 3)); higher = more TH+ dopaminergic neuron differentiation; details: 2 uM, 4 weeks, BDNF 10 ng/ml + GDNF 10 ng/ml

Compound: C=C1C[C@@H]2[C@H](CC[C@]3(C)C(=O)CC[C@@H]23)[C@@]2(C)C=CC(=O)C=C12 [Exemestane]
- neuronal differentiation score (ReNCell VM [1]; library: Prestwick): inactive: 0
- dopaminergic neuron differentiation score (ReNCell VM [2]; library: Prestwick): inactive: 0

Compound: CCCCCCCCCCCCCC(=O)O[C@@H]1[C@@H](C)[C@@]2(O)[C@@H](C=C(CO)C[C@]3(O)C(=O)C(C)=C[C@@H]23)[C@@H]2C(C)(C)[C@]12OC(C)=O [Phorbol 12-myristate 13-acetate]
- neuronal differentiation score (ReNCell VM [1]; library: LOPAC): inactive: 0
- dopaminergic neuron differentiation score (ReNCell VM [2]; library: LOPAC): inactive: 0

Compound: CN1[C@@H]2CC[C@H]1C[C@@H](OC(c1ccccc1)c1ccccc1N)C2 (stereo partly drawn) [Aminobenztropine]
- neuronal differentiation score (ReNCell VM [1]; library: LOPAC): inactive: 1
- dopaminergic neuron differentiation score (ReNCell VM [2]; library: LOPAC): inactive: 0

Compound: NC(=O)c1ccc(N)nc1
- neuronal differentiation score (ReNCell VM [1]; library: Spectrum): inactive: 0
- dopaminergic neuron differentiation score (ReNCell VM [2]; library: Spectrum): inactive: 0

Compound: C[C@H]1CCC/C=C/[C@@H]2C[C@H](O)C[C@H]2[C@H](O)/C=C/C(=O)O1 [Brefeldin A]
- neuronal differentiation score (ReNCell VM [1]; library: Tocriscreen): inactive: 0
- dopaminergic neuron differentiation score (ReNCell VM [2]; library: Tocriscreen): inactive: 0

Compound: CN1CC[C@]23CCCC[C@H]2[C@H]1Cc1ccc(O)cc13 [17-methylmorphinan-3-ol]
- neuronal differentiation score (ReNCell VM [1]; library: Natural): inactive: -1
- dopaminergic neuron differentiation score (ReNCell VM [2]; library: Natural): inactive: 0

Compound: O=C([O-])Cc1ccccc1.[Na+]
- neuronal differentiation score (ReNCell VM [1]; library: Spectrum): inactive: 1
- dopaminergic neuron differentiation score (ReNCell VM [2]; library: Spectrum): inactive: 0

Compound: O=C(O)CCCO
- neuronal differentiation score (ReNCell VM [1]; library: Spectrum): inactive: 0
- dopaminergic neuron differentiation score (ReNCell VM [2]; library: Spectrum): inactive: 0

Compound: CN[C@@H](C)[C@H](O)c1ccccc1 [Ephedrine HCl]
- neuronal differentiation score (ReNCell VM [1]; library: Phytochemical): inactive: 0
- dopaminergic neuron differentiation score (ReNCell VM [2]; library: Phytochemical): inactive: 0

Compound: CCCN(CCC)[C@@H]1CCc2c(OC)cccc2[C@@H]1C [(+)-UH 232 maleate]
- neuronal differentiation score (ReNCell VM [1]; library: Tocriscreen): inactive: 0
- dopaminergic neuron differentiation score (ReNCell VM [2]; library: Tocriscreen): inactive: 0

Compound: COc1ccc2c(c1)[C@]13CCCC[C@@H]1[C@H](C2)N(C)CC3
- neuronal differentiation score (ReNCell VM [1]; library: Spectrum): inactive: 0
- dopaminergic neuron differentiation score (ReNCell VM [2]; library: Spectrum): inactive: 0

Compound: CN1[C@@H]2CC[C@H]1C[C@@H](OC(=O)[C@H](CO)c1ccccc1)C2
- neuronal differentiation score (ReNCell VM [1]; library: Spectrum): inactive: 0
- dopaminergic neuron differentiation score (ReNCell VM [2]; library: Spectrum): inactive: 0

Compound: CCC[C@@H]1CC2=CC(=O)CC[C@]2(C)[C@H]2CC[C@@]3(C)[C@@H](CC[C@@]3(O)CCC(=O)O)[C@H]12
- neuronal differentiation score (ReNCell VM [1]; library: Tocriscreen): inactive: 0
- dopaminergic neuron differentiation score (ReNCell VM [2]; library: Tocriscreen): inactive: 0

Compound: Cc1onc(O)c1CC(N)C(=O)O (racemic) [(RS)-AMPA hydrobromide]
- neuronal differentiation score (ReNCell VM [1]; library: Tocriscreen): inactive: 0
- dopaminergic neuron differentiation score (ReNCell VM [2]; library: Tocriscreen): inactive: 0

Compound: CC(C)(c1ccc(OCC2CO2)cc1)c1ccc(OCC2CO2)cc1 (stereo not drawn)
- neuronal differentiation score (ReNCell VM [1]; library: Tocriscreen): inactive: 0
- dopaminergic neuron differentiation score (ReNCell VM [2]; library: Tocriscreen): inactive: 0

Compound: C[C@]12CCC(=O)C(O)=C1CC[C@@H]1[C@@H]2CC[C@]2(C)C(=O)CC[C@@H]12
- neuronal differentiation score (ReNCell VM [1]; library: Spectrum): inactive: 0
- dopaminergic neuron differentiation score (ReNCell VM [2]; library: Spectrum): inactive: 0

Compound: CC(C)(C)NCC(O)c1ccccc1Cl (stereo not drawn) [Tulobuterol hydrochloride]
- neuronal differentiation score (ReNCell VM [1]; library: LOPAC): inactive: 0
- dopaminergic neuron differentiation score (ReNCell VM [2]; library: LOPAC): inactive: 0

Compound: COc1c2c(cc3c1OCO3)CCN(C)C2 [Hydrocotarnine hydrobromide]
- neuronal differentiation score (ReNCell VM [1]; library: Phytochemical): inactive: 0
- dopaminergic neuron differentiation score (ReNCell VM [2]; library: Phytochemical): inactive: 0

Compound: CN1CCc2cc3c(cc2C1O)OCO3 (stereo not drawn) [Hydrastinine hydrochloride]
- neuronal differentiation score (ReNCell VM [1]; library: Phytochemical): inactive: 0
- dopaminergic neuron differentiation score (ReNCell VM [2]; library: Phytochemical): inactive: 0

Compound: Cc1cc([C@@H]2CCCN2C)on1 [ABT-418 hydrochloride]
- neuronal differentiation score (ReNCell VM [1]; library: LOPAC): inactive: 0
- dopaminergic neuron differentiation score (ReNCell VM [2]; library: LOPAC): inactive: 0

Compound: O=C1/C(=C/c2ccccc2)C[C@@]2(O)[C@H]3Cc4ccc(O)c5c4[C@@]2(CCN3CC2CC2)[C@H]1O5 [BNTX maleate]
- neuronal differentiation score (ReNCell VM [1]; library: Tocriscreen): inactive: 0
- dopaminergic neuron differentiation score (ReNCell VM [2]; library: Tocriscreen): inactive: 0

Compound: C[N+](C)(C)CCCCCCCCCC[N+](C)(C)C [Decamethonium bromide]
- neuronal differentiation score (ReNCell VM [1]; library: Prestwick): inactive: 0
- dopaminergic neuron differentiation score (ReNCell VM [2]; library: Prestwick): inactive: 0

Compound: COc1ccc(C(=O)c2c(C)n(CCN3CCOCC3)c3cc(I)ccc23)cc1
- neuronal differentiation score (ReNCell VM [1]; library: Tocriscreen): inactive: 0
- dopaminergic neuron differentiation score (ReNCell VM [2]; library: Tocriscreen): inactive: 0

Compound: C[C@]12CC[C@@H](O)C[C@@H]1CC[C@@H]1[C@@H]2CC[C@]2(C)C(=O)CC[C@@H]12 [Androsterone]
- neuronal differentiation score (ReNCell VM [1]; library: Prestwick): inactive: 0
- dopaminergic neuron differentiation score (ReNCell VM [2]; library: Prestwick): inactive: 0
